Results deposited as PubChem BioAssay AID504764 (Drosophila RNAi Screening Center, 2011)
In all, the deposit lists about 22,000 reagents; below is a random part of those that have a named target and a result. Of all reagents, 403 (1.9%) were called active. 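Unnormalised raw counts per well; ratio z-scores behind the hit calls and whether each hit raises or lowers signal are not deposited.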 Entries without a mark were called inactive. No sequences are given here. The record does not give: the amount of reagent.

Test: 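Knock-downs that raise or lower a Notch target reporter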 (primary screen)
Cell system: Drosophila Kc167 cells
Reagents: long dsRNA against Drosophila genes
Time to read-out: about 5 days (4 days dsRNA, then 24 h after transfection)
Conditions: transfection of constitutively active membrane-tethered Notch lacking the extracellular domain, read 24 h later
Measured: 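Firefly luciferase from an E(spl)m3 reporter with active Notch, plus control-promoter and uninduced reporter wells for normalisation; unnormalised counts, duplicate wells a and b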
Scale: induced reporter light, run 1, well a and induced reporter light, run 1, well b: higher = more light from the Notch target reporter with active Notch; control promoter light, run 1, well a and control promoter light, run 1, well b: higher = more light from the viral control promoter (cell number, transfection, viability); uninduced reporter light, run 1, well a: higher = more light from the Notch target reporter without active Notch
Hit rule: 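Wells with low control signal or poorly matching duplicates excluded; duplicates averaged; per source plate, z beyond ±2 for induced/control log2 ratio or beyond ±1.8 for induced/uninduced marks a hit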
Calls: active = modifier hit (raised or lowered Notch signal); inactive = not a hit

CG42633 [DRSC16061] showed induced reporter light, run 1, well a = 89610; induced reporter light, run 1, well b = 74300; control promoter light, run 1, well a = 72310; control promoter light, run 1, well b = 56585; uninduced reporter light, run 1, well a = 6455.
CG34243 (retired record) [DRSC09291] showed induced reporter light, run 1, well a = 90960; induced reporter light, run 1, well b = 93355; control promoter light, run 1, well a = 60355; control promoter light, run 1, well b = 43680; uninduced reporter light, run 1, well a = 17265.
Against CG34243 (retired record) [DRSC09292], the values are induced reporter light, run 1, well a = 1.64e5; induced reporter light, run 1, well b = 1.55e5; control promoter light, run 1, well a = 2.04e5; control promoter light, run 1, well b = 2.42e5; uninduced reporter light, run 1, well a = 18735.
Silencing of CG32564 [DRSC19933] gave: induced reporter light, run 1, well a = 97780; induced reporter light, run 1, well b = 86145; control promoter light, run 1, well a = 90720; control promoter light, run 1, well b = 72365; uninduced reporter light, run 1, well a = 12828.
Silencing of CG15820 [DRSC08480] resulted in: induced reporter light, run 1, well a = 71530; induced reporter light, run 1, well b = 71000; control promoter light, run 1, well a = 95200; control promoter light, run 1, well b = 1.01e5; uninduced reporter light, run 1, well a = 6085.
Oli (Olig family) [DRSC02866] gave induced reporter light, run 1, well a = 2.66e5; induced reporter light, run 1, well b = 2.65e5; control promoter light, run 1, well a = 2.50e5; control promoter light, run 1, well b = 1.97e5; uninduced reporter light, run 1, well a = 20105.
With knock-down of CG6330 [DRSC16022] the results were induced reporter light, run 1, well a = 1.53e5; induced reporter light, run 1, well b = 1.83e5; control promoter light, run 1, well a = 2.42e5; control promoter light, run 1, well b = 2.18e5; uninduced reporter light, run 1, well a = 14320.
After knock-down of enc (encore) [DRSC08716], the record shows induced reporter light, run 1, well a = 1.19e5; induced reporter light, run 1, well b = 1.26e5; control promoter light, run 1, well a = 1.96e5; control promoter light, run 1, well b = 1.81e5; uninduced reporter light, run 1, well a = 7250.
With knock-down of CheA86a (Chemosensory protein A 86a) [DRSC12839], the record shows induced reporter light, run 1, well a = 2.03e5; induced reporter light, run 1, well b = 1.25e5; control promoter light, run 1, well a = 2.05e5; control promoter light, run 1, well b = 1.45e5; uninduced reporter light, run 1, well a = 10675.
CG9459 [DRSC16496] showed induced reporter light, run 1, well a = 74865; induced reporter light, run 1, well b = 83780; control promoter light, run 1, well a = 65790; control promoter light, run 1, well b = 53585; uninduced reporter light, run 1, well a = 5092.
With knock-down of Cpr49Ah (Cuticular protein 49Ah) [DRSC07204] the results were induced reporter light, run 1, well a = 85395; induced reporter light, run 1, well b = 80745; control promoter light, run 1, well a = 1.11e5; control promoter light, run 1, well b = 87680; uninduced reporter light, run 1, well a = 8820.
Depletion of CG14834 [DRSC10204] resulted in: induced reporter light, run 1, well a = 1.79e5; induced reporter light, run 1, well b = 1.83e5; control promoter light, run 1, well a = 1.75e5; control promoter light, run 1, well b = 1.27e5; uninduced reporter light, run 1, well a = 5795.
After knock-down of CG15423 [DRSC00437] the results were induced reporter light, run 1, well a = 1.88e5; induced reporter light, run 1, well b = 1.69e5; control promoter light, run 1, well a = 1.81e5; control promoter light, run 1, well b = 1.48e5; uninduced reporter light, run 1, well a = 10750.
For Golgin97 (Golgin 97) [DRSC06895] the deposit lists induced reporter light, run 1, well a = 2.26e5; induced reporter light, run 1, well b = 1.49e5; control promoter light, run 1, well a = 2.21e5; control promoter light, run 1, well b = 1.63e5; uninduced reporter light, run 1, well a = 15470.
With knock-down of mthl10 (methuselah-like 10) [DRSC08504], the record shows induced reporter light, run 1, well a = 1.32e5; induced reporter light, run 1, well b = 1.43e5; control promoter light, run 1, well a = 1.87e5; control promoter light, run 1, well b = 1.73e5; uninduced reporter light, run 1, well a = 9685.
For mthl10 (methuselah-like 10) [DRSC08505], the entry reads induced reporter light, run 1, well a = 1.34e5; induced reporter light, run 1, well b = 1.47e5; control promoter light, run 1, well a = 2.20e5; control promoter light, run 1, well b = 1.48e5; uninduced reporter light, run 1, well a = 9245.
Depletion of CG12355 [DRSC09381] gave: induced reporter light, run 1, well a = 1.57e5; induced reporter light, run 1, well b = 2.04e5; control promoter light, run 1, well a = 2.98e5; control promoter light, run 1, well b = 2.33e5; uninduced reporter light, run 1, well a = 13295.
With knock-down of CG12355 [DRSC09883] the results were induced reporter light, run 1, well a = 1.57e5; induced reporter light, run 1, well b = 1.50e5; control promoter light, run 1, well a = 2.15e5; control promoter light, run 1, well b = 1.91e5; uninduced reporter light, run 1, well a = 9085.

2 entries already listed, arranged by “induced reporter light, run 1, well a”, highest first.
CheA86a (Chemosensory protein A 86a) [DRSC12839] — induced reporter light, run 1, well a: 2.03e5; induced reporter light, run 1, well b: 1.25e5; control promoter light, run 1, well a: 2.05e5; control promoter light, run 1, well b: 1.45e5; uninduced reporter light, run 1, well a: 10675
CG9459 [DRSC16496] — induced reporter light, run 1, well a: 74865; induced reporter light, run 1, well b: 83780; control promoter light, run 1, well a: 65790; control promoter light, run 1, well b: 53585; uninduced reporter light, run 1, well a: 5092
